Consider three substances from paper PMC5764988.

Test [1] deals with T1, MagD, the Type II alpha-2-macroglobulin from Pseudomonas aeruginosa (Pseudomonas aeruginosa) (UniProt Q9HVT2).
T1 sequence: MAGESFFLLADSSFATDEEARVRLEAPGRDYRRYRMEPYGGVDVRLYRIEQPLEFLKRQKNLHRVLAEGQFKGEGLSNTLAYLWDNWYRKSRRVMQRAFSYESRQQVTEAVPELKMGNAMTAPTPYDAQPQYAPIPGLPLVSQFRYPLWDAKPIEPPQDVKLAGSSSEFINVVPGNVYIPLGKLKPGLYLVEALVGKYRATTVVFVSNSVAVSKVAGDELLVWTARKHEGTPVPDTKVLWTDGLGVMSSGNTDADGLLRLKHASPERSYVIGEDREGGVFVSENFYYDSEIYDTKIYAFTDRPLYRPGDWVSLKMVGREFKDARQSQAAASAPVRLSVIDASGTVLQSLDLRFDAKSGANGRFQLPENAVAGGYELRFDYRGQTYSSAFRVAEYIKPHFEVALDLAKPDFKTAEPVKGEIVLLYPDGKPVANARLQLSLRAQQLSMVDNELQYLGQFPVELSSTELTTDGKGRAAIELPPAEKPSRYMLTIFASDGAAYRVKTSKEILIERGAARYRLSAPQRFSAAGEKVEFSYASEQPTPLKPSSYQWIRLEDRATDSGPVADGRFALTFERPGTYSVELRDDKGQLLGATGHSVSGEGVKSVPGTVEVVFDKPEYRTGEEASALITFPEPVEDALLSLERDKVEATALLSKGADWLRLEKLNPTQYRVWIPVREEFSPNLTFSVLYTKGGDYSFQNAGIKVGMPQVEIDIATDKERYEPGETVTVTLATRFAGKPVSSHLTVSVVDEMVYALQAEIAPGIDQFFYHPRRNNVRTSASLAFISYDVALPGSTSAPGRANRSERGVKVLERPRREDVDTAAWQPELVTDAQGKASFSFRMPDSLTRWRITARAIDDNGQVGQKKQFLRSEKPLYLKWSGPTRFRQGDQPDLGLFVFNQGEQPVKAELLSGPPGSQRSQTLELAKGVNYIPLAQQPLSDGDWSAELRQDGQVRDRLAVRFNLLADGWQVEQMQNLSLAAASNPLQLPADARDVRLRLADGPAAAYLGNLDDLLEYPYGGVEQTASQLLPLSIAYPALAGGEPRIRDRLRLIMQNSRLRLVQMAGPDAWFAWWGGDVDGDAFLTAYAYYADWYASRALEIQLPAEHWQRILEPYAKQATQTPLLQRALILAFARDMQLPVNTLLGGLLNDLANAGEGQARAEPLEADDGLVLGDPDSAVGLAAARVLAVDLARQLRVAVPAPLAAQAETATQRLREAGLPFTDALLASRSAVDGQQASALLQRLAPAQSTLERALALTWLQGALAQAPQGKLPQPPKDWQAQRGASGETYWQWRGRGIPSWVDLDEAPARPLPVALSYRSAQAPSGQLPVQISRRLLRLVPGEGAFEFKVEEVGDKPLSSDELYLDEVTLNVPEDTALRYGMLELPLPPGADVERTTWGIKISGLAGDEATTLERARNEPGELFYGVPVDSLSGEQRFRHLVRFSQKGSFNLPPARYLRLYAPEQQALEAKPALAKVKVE
The test is described as follows: SAXS; LNLS SAXS1 beamline, 10 °C, 2 to 6 mg/mL in 25 mM HEPES pH 7.5, 100 mM NaCl, 5% glycerol, 1 mM DTT; samples purified by SEC beforehand; Rg and Dmax of the complexes compared with MagD; both purified.

Test [2] concerns the target T1, MagD, the Type II alpha-2-macroglobulin from Pseudomonas aeruginosa (Pseudomonas aeruginosa). The test is described as follows: SEC; MagD co-expressed with one other Mag protein in E. coli BL21 Star; co-purification by Ni-NTA and gel filtration (Superdex S200, 25 mM HEPES pH 7.5, 100 mM NaCl, 4 °C); both chains His6-tagged.

Results are given in words; binding and its absence hold for the method and conditions named. Binding calls can cover weak binding; strength is not graded here. For some assays here: In cells and extracts the contact can be indirect.

In the case of MagF (Pseudomonas aeruginosa), the binding result in test [1] and in test [2] was “binds” in each case.

Consider MagA (Pseudomonas aeruginosa), for which the binding result in test [1] and in test [2] was “binds” each time.

As for MagE (Pseudomonas aeruginosa), in test [2], the binding result was “no binding”.
